# Experimental data: patent publication US20220073611A1
# These are yes or no findings as the source states them, for the method shown. Some entries that bind do so weakly or less than the wild type.
# Tests used:
# [1] = biological target: GluN1 on cultured rat hippocampal neurons (rat) (UniProt P35439); assay: immunostaining of fixed cultured rat hippocampal neurons
# [2] = biological target: GluN1 on cultured rat hippocampal neurons (rat) (UniProt P35439); assay: staining of cultured hippocampal neurons treated with MK-801 or AP5
# [3] = biological target: GluN1 on cultured rat hippocampal neurons (rat) (UniProt P35439); assay: immunostaining of cultured rat hippocampal neurons
# [4] = biological target: GluN1 in murine brain (cortex and hippocampus sections) (mouse) (UniProt P35438); assay: immunostaining of floating sections of murine cortex and hippocampus
# [5] = biological target: GluN1 on cultured rat hippocampal neurons (rat) (UniProt P35439); assay: staining of live rat hippocampal neurons, co-stained with commercial anti-GluN1 and anti-PSD-95
binding [1],binding [2],binding [3],binding [4],binding [5],Binder
binds,binds,binds,–,–,"mAb 2G6 (antibody, V domains shown) VH: QVQLQESGGGVVQPGRSLRLSCAASGFSFNAFAMHWVRQAPGKGLEWVARISHYGSDDYYADSVKGRFTISRDNSQNTLFLQMNSLKAEDTGVYYCWRGFTLVRGVISRNPINRFSGMDVWGQGTTVTVS VL: SYELMQPPSVSVSPGQTARITCSGDALPKKYAYWYQQKSGQAPILVIYEDNKRPSGIPERFSGSSSGTMATLTISGAQVEDEADYFCYSTDSSGNHGVFGGGTKLTVL"
binds,binds,binds,binds,binds,"mAb 5F5 (antibody, V domains shown) VH: QVQLVESGGGVVRPGGSLRLSCAASGFTFSTYSLHWVRQAPGKGLEWVGVILYDGSKKYYADSVRGRFTISRDNSKSTLNLDMSSLRPDDTAVYYCARDPIAVAPRPSGMVPQGFDYWGQGTLVTVSS VL: QSVVTQPPSASGTPGQRVTISCSGSSSNIGRNFVFWYRQLPGTAPKVLIYKNIQRPSGVPDRISGSRSGSSASLAISGLRSEDEADYYCASWDDSLSGVVFGGGTKLTVL"
